Assay results reported in PubChem BioAssay AID1671190 (National Center for Advancing Translational Sciences (NCATS), 2021).
Where “and” joins values, the source holds several entries; their conditions need not be identical. Equal values may be shown once. Hit rate of the full screen: of about 580,000 compounds, about 6,100 (1.1%) were called active. This list was built around the results that the source calls inconclusive (neither active nor inactive); the mix of calls is not that of the screen. Calls follow the shape of the dose curve; as a rule, active = well fitted inhibition curve with a large enough effect; inconclusive = small, poorly fitted or top-dose-only effect, or another doubt; inactive = no such curve, though single readings can be large or run the other way. A potency beside an inconclusive call is a rough fit, not a confirmed value.

Amino acid sequences for entries named in this document (tags omitted). A change or cut given only in a name is not applied to a line headed by its entry.
UniProt P18054: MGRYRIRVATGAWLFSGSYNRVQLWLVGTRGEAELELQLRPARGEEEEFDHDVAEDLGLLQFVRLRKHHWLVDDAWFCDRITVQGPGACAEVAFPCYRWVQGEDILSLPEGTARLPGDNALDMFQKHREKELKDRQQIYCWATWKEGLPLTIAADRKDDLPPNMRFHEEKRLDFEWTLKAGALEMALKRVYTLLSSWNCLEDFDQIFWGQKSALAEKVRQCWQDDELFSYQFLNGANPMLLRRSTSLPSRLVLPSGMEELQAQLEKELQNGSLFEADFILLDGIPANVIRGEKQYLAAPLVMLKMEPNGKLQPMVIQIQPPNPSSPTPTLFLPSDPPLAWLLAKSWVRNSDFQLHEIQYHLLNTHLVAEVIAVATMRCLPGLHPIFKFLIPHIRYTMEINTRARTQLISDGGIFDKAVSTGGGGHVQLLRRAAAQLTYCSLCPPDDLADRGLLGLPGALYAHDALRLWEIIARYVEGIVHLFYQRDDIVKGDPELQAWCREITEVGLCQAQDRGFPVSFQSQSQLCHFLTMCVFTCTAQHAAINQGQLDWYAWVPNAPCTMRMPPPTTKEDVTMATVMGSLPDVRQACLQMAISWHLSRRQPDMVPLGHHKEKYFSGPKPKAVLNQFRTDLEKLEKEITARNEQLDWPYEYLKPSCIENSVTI

Target: Polyunsaturated fatty acid lipoxygenase ALOX12 (Homo sapiens) (UniProt P18054)
Assay: Primary qHTS assay for inhibitors of human arachidonate 12S-lipoxygenase (ALOX12): Round 2
Settings: purified 12hLO, xylenol orange hydroperoxide absorbance; activity change, negative = inhibition: at 108 µM (top of the series) unless noted
Summary of the method: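 Purified human 12hLO at 150 nM in 25 mM Hepes, 0.01% Triton X-100, pH 7.0, preincubated 15 min at room temperature with compound. Reaction started with 40 uM arachidonic acid, 30 min at room temperature. Hydroperoxide measured by Fe-xylenol orange, 573/405 nm absorbance ratio.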
% is scaled to controls: 0 for no effect and ±100 for the full control effect; potency is read from the fitted curve at half-maximal effect.

Structure (SMILES)	Potency	activity change, negative = inhibition
O=C(O)c1ccc(-c2ccccc2)s1	inconclusive: 39.8 µM [inhibitor, partial curve, poor fit]	–
COc1cc(C=O)ccc1OCc1c(F)cccc1Cl	inactive	–
c1cncc(-c2nc(N3CCCCCC3)c3ccccc3n2)c1	inactive	–
CNC(=O)[C@@H]1C[C@@H](n2cc(CNC(=O)Cc3ccccc3)nn2)CN1	inactive	–
c1ccc2[nH]c(NN=C3CCCCCC3)nc2c1	inactive	–
O=C(C[C@@H]1CCNC[C@@H]1Cc1cc(-c2ccccc2)on1)NCc1ccccc1	inconclusive: 12.6 µM [inhibitor, full curve]	–
O=C1NN(c2ccccc2)C(=O)/C1=C\c1ccc(-c2cc([N+](=O)[O-])ccc2O)o1	inconclusive: 35.5 µM [inhibitor, partial curve, poor fit]	–
CC(C)Nc1nc(-c2ccc(NS(C)(=O)=O)cc2)cs1	inconclusive: 0.501 µM [inhibitor, full curve, poor fit]	–
O=C(C[n+]1cccc(CNC(=O)c2ccc(OC(F)F)cc2)c1)Nc1cccc(C(F)(F)F)c1	inconclusive: 50.1 µM [inhibitor, partial curve, poor fit]	–
Clc1ccc(CN2CCCCCC2)cc1Cl	inconclusive: 1.12 µM [inhibitor, full curve]	–
COC(=O)c1scc(C#N)c1N/N=C(\C#N)S(=O)(=O)c1ccc(Cl)cc1	inconclusive: 35.5 µM [inhibitor, partial curve, poor fit]	–
Cc1ccc(OCC(=O)N2CCN(c3cc(=O)n4nc(-c5ccccc5)sc4n3)CC2)c(C)c1	inconclusive: 44.7 µM [inhibitor, partial curve, poor fit]	–
CN1CC(=O)N(c2ccc(Cl)cc2)Cc2c(NC3CCNCC3)ncnc21	inconclusive: 10 µM [inhibitor, full curve, poor fit]	–
Cn1ncc2c(C(=O)N3CCN(c4ncccn4)CC3)cc(-c3ccc([S+](C)(=O)[O-])cc3)nc21	–	inactive: 0.146% [at 6.33 µM]
Cc1ccc2c(c1)/C(=C/c1ccccc1)C(=O)N2	inactive	–
OC(CNCc1cccc(Oc2nnnn2-c2ccccc2)c1)c1ccccc1 (centres undefined)	inconclusive: 14.1 µM [inhibitor, full curve, poor fit]	–
COc1ccc(N(CC(=O)NCc2ccc3c(c2)OCO3)S(=O)(=O)c2ccc(O)c(C(=O)O)c2)cc1	inconclusive: 0.501 µM [inhibitor, full curve, poor fit]	–
O=C(Nc1ccc2c(c1)CCC2)c1ccc2ccccc2c1	inactive	–
C=CCn1c(Oc2ccc(OC)cc2)nc2c1c(=O)n(C)c(=O)n2C	inactive	–
COc1cccc(OC)c1OCCN1CCN(C(=O)c2ccco2)CC1	inconclusive: 39.8 µM [inhibitor, partial curve, poor fit]	–
O=c1c2cc(Cl)cc(Cl)c2ncn1Cc1ccc(F)cc1Cl	inconclusive: 28.2 µM [inhibitor, partial curve]	–
Cc1ccc(O)c(C(=O)c2cc(C#N)c(=O)n(-c3nccs3)c2)c1	inconclusive: 2.51 µM [inhibitor, full curve, poor fit]	–
CC(=O)c1cccc(NC(=S)NCCc2ccc(Cl)cc2)c1	inconclusive: 126 µM [inhibitor, single point]	–

Structure (SMILES)	Potency	activity change, negative = inhibition
O=C1C2CC=C(Cl)CC2C(=O)N1CCN1CCOCC1 (centres undefined)	inconclusive: 35.5 µM [inhibitor, single point]	–
Cc1cc(C)cc(N2CCC(NC(=O)c3cc(C)ccc3C)C2=O)c1 (centres undefined)	inactive	–
CCc1ccc(N2C(=O)CS(=O)(=O)C23C(=O)N(Cc2ccccc2C)c2ccccc23)cc1 (centres undefined)	inactive	–
Cc1ccc(-c2c(C#N)c(N)nc3c2CCCCCC3)o1	inconclusive: 50.1 µM [inhibitor, partial curve, poor fit]	–
FC(F)(F)c1ccc(CN2CCn3c(nnc3C3CCNCC3)C2)cc1	inconclusive: 5.01 µM [inhibitor, full curve, poor fit]	–
O=S(=O)(c1ccc2nc(Nc3ccc(F)cc3)ccc2c1)N1CCCC1	inactive	–
NC(=S)c1ccc(S(N)(=O)=O)cc1	active: 3.16 µM	–
Cc1snnc1C(=O)NC(=S)Nc1ccccc1	inconclusive: 28.2 µM [inhibitor, partial curve, poor fit]	–
O=C(O)c1ccc(/C=C/c2nc3cc(Cl)ccc3s2)cc1	inconclusive: 112 µM [inhibitor, single point]	–
Cc1cccc(NC(=O)CSc2nc3nc(C)cc(C)n3n2)c1	inactive	–
O=C(NC(=S)N1CCOCC1)c1cn(-c2ccccc2)nc1-c1ccc(F)cc1	inconclusive: 28.2 µM [inhibitor, single point]	–
O=C(Sc1ccc(Sc2ccc(SC(=O)c3ccco3)cc2)cc1)c1ccco1	inactive	–
O=C(O)c1cc2ccccc2c2cccnc12	inconclusive: 5.01 µM [inhibitor, full curve, poor fit]	–
COCCCNC(=S)N1CCN(S(=O)(=O)c2ccc(OC)cc2)CC1	inactive	–
Cc1cc(C(=O)CCl)c(C)n1CCc1ccccc1	inactive	–
C/C(N)=C(/C#N)C(=O)CSc1n[nH]c(-c2ccccc2Br)n1	inconclusive: 39.8 µM [inhibitor, partial curve, poor fit]	–
N[C@@H](Cc1ccc(O)c(O)c1)C(=O)O	inconclusive: 15.8 µM [inhibitor, partial curve, poor fit] and inconclusive: 6.85 µM [inhibitor, full curve]	–
COc1ccc(-n2c(Cc3cccn3C)nnc2SCC(=O)Nc2nc(C)cs2)cc1	inactive	–
CC(=O)N1CCN([C@H]2[C@@H]3OC[C@@H](O3)[C@@H](NCc3cnc4ccccc4c3)[C@@H]2O)CC1	inactive	–
CCOc1ccc(-n2c(SCC(=O)N3CCCc4ccccc43)nc3c(c2=O)SCC3)cc1	inconclusive: 89.1 µM [inhibitor, single point]	–
Cc1nc(-c2ccc(C(=O)Nc3cccc(Br)c3)cc2)cs1	inactive	–
CCCCCCc1cc2cc(S(=O)(=O)c3ccc(F)cc3)c(=O)oc2cc1O	inconclusive: 44.7 µM [inhibitor, partial curve, poor fit]	–
CC(NC(=O)CNC(=O)c1sc2ccccc2c1Cl)c1ccc(S(N)(=O)=O)cc1 (centres undefined)	inconclusive: 89.1 µM [inhibitor, partial curve, poor fit]	–

Structure (SMILES)	Potency	activity change, negative = inhibition
Cc1ccc(C(=O)NNC(=O)c2ccc3ccccc3c2O)cc1	inactive	–
COc1cccc(C(=O)N2CCn3c(nnc3-c3ccccc3)C2)c1	inactive	–
Cn1c(-c2ccccc2)c(C=O)c2ccccc21	inactive	–
O=C(N[C@H]1CCN2C(=O)c3ccc(Cl)cc3NC(=O)[C@H]12)c1cccc(F)c1	inconclusive: 4.47 µM [inhibitor, full curve, poor fit]	–
O=C1NCCOCCN(C(=O)NC2CCCCC2)[C@@H]2CCCC[C@H]12	inactive	–
CC(C)(C)c1nnc(NC(=O)c2ccc3c(c2)OCO3)s1	inconclusive: 56.2 µM [inhibitor, partial curve, poor fit]	–
O=C(Sc1ccc(Cl)cc1)c1ccccn1	active: 2.82 µM	–
Cc1cc(C)nc(SC2CCOC2=O)n1 (centres undefined)	inconclusive: 3.16 µM [inhibitor, full curve, poor fit]	–
Cc1ccccc1-c1nnn(CCC(=O)Nc2sc3c(c2C#N)CCCC3)n1	inconclusive: 44.7 µM [inhibitor, partial curve, poor fit]	–
CCC(C)NC(=O)c1cn(CC)c2ccc(S(=O)(=O)N3CCc4ccccc4C3)cc2c1=O (centres undefined)	inactive	–
O=S1(=O)N=CN(Cc2cccc(Cl)c2)c2cc(C(F)(F)F)ccc21	inconclusive: 89.1 µM [inhibitor, single point]	–
O=C(Cn1cc[n+](CC(=O)c2ccc(Cl)cc2Cl)c1)c1ccc(Cl)cc1Cl	inconclusive: 50.1 µM [inhibitor, partial curve, poor fit]	–
NC(=O)[C@@H]1CCCN1CC[C@H]1CN(S(=O)(=O)c2ccccc2)CC[C@H]1CC(=O)O	inconclusive: 28.2 µM [inhibitor, full curve, poor fit]	–
COC(=O)C1CN(C(=O)COc2cccc(C)c2C)c2ccccc2O1 (centres undefined)	inconclusive: 44.7 µM [inhibitor, partial curve, poor fit]	–
COc1ccccc1NC(=O)C(=O)Nc1ccccn1	inactive	–
CC(C)c1ccc(NC(=O)[C@H](NC(=O)[C@@H]2Cc3ccccc3CN2)c2ccccc2)cc1	inactive	–
Cc1ccc(CCNC(=O)c2ccc3c(c2)N(Cc2ccc(F)cc2)CCS3)cc1	inconclusive: 50.1 µM [inhibitor, partial curve, poor fit]	–
Cc1ccc(C)c(NS(=O)(=O)c2ccc(-n3cccn3)cc2)c1	inconclusive: 79.4 µM [inhibitor, single point]	–
CC(=O)Nc1ccc(S(=O)(=O)N2CCC(C(=O)NCCc3c[nH]c4ccccc34)CC2)cc1	inactive	–
CC(C=NNc1ccc([N+](=O)[O-])cn1)=Cc1ccccc1	inconclusive: 35.5 µM [inhibitor, partial curve, poor fit]	–
O=C(NCc1ccccc1Cl)c1ccc2c(c1)N(Cc1ccccc1)CCS2	inconclusive: 50.1 µM [inhibitor, partial curve, poor fit]	–
COc1ccc(C(CCN2CCOCC2)c2c(OC)cc(OC)c3c(C)cc(=O)oc23)cc1 (centres undefined)	inconclusive: 0.316 µM [inhibitor, full curve, poor fit]	–
N#CCn1cnc2sc(-c3ccccc3)cc2c1=O	inactive	–

Some of these compounds in order of molecular weight, smallest number first:
Structure (SMILES)	Potency	activity change, negative = inhibition
Cc1cc(C)nc(SC2CCOC2=O)n1 (centres undefined)	inconclusive: 3.16 µM [inhibitor, full curve, poor fit]	–
CC(C)(C)c1nnc(NC(=O)c2ccc3c(c2)OCO3)s1	inconclusive: 56.2 µM [inhibitor, partial curve, poor fit]	–
COc1cccc(C(=O)N2CCn3c(nnc3-c3ccccc3)C2)c1	inactive	–
